Results are given in words; binding and its absence hold for the method and conditions named. Binding seen in cells or lysates may run through a third protein. Here binding means that the protein was enriched with, or labelled near, the bait; the list need not be complete.
B1: BCL10 (B cell lymphoma protein 10) (protein, UniProt O95999 1-233)
chain: MEPTAPSLTEEDLTEVKKDALENLRVYLCEKIIAERHFDHLRAKKILSREDTEEISCRTSSRKRAGKLLDYLQENPKGLDTLVESIRREKTQNFLIQKITDEVLKLRNIKLEHLKGLKCSSCEPFPDGATNNLSRSNSDESNFSEKLRASTVMYHPEGESSTTPFFSTNSSLNLPVLEVGRTENTIFSSTTLPRPGDPGAPPLPPDLQLEEEGTCANSSEMFLPLRSRTVSRQ

Sequences of proteins named here, by UniProt entry; tags and fusion partners are left off. A change or cut given only in a name is not applied to a line headed by its entry.
UniProt Q9BXL6: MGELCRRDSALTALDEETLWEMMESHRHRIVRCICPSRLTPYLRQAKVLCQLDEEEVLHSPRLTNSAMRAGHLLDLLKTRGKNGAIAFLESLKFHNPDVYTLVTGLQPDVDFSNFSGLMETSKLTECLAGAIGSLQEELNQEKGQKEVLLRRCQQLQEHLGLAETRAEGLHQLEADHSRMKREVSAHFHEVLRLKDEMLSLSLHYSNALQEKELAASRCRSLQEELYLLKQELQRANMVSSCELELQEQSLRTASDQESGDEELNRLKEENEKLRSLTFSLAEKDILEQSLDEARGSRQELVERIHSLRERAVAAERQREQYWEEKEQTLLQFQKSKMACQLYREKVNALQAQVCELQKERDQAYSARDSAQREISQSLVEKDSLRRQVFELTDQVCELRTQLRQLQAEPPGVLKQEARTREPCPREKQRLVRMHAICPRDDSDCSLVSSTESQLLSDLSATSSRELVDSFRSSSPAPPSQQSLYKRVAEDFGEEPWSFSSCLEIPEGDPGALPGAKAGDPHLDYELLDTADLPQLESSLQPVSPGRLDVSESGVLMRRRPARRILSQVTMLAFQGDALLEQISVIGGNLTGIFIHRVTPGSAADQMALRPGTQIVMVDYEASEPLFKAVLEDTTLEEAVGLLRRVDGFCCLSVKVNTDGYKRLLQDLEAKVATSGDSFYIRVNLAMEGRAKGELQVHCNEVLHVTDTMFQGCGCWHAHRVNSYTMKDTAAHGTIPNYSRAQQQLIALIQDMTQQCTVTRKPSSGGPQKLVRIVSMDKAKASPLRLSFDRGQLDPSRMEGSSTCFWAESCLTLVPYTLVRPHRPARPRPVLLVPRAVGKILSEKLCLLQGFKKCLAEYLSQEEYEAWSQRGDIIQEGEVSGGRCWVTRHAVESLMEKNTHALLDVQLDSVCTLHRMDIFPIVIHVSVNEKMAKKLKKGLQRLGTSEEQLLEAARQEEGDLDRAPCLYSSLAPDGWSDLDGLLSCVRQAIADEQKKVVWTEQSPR
UniProt Q14677: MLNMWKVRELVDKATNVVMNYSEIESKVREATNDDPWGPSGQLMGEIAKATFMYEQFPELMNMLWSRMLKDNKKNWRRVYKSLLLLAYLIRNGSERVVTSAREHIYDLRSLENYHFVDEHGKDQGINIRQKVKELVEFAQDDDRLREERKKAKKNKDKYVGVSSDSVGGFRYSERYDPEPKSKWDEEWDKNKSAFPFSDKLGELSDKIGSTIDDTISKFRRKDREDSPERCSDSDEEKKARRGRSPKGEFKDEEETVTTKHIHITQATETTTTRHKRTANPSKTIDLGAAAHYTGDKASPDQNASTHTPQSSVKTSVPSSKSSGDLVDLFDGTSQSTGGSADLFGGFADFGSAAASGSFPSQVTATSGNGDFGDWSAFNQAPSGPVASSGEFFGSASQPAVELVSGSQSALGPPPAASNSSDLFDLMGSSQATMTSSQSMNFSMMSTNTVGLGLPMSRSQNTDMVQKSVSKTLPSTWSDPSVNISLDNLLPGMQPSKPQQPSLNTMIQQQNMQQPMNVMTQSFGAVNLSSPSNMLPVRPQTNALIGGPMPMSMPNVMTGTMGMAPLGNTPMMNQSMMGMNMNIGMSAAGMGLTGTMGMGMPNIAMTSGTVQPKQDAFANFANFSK
UniProt Q96EP0: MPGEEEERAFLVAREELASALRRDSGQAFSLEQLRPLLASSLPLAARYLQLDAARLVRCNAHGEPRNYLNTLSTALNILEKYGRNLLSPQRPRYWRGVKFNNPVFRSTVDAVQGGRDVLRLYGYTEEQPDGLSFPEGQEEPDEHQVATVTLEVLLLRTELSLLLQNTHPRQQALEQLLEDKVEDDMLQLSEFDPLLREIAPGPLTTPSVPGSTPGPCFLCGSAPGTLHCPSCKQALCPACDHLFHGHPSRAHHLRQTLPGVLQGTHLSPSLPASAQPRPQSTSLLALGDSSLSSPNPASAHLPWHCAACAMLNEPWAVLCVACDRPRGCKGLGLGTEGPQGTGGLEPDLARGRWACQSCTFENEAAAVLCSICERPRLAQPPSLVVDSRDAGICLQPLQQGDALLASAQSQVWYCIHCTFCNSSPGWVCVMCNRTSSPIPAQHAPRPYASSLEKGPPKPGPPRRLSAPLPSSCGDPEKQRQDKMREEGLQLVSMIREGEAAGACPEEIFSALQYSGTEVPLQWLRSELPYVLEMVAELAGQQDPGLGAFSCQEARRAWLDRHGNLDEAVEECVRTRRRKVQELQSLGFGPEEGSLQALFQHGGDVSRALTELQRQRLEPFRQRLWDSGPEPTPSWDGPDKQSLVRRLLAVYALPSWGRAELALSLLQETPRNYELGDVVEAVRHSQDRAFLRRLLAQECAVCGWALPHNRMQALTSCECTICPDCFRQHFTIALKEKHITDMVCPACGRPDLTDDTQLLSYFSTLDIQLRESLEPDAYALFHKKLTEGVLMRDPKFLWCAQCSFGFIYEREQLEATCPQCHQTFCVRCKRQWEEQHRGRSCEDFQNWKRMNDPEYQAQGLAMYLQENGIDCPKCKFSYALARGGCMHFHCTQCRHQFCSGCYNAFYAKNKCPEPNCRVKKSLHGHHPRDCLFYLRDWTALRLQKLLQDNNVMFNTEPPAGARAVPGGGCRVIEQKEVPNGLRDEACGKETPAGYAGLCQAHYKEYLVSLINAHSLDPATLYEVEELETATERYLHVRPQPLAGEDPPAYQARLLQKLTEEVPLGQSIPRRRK
UniProt Q9UDY8: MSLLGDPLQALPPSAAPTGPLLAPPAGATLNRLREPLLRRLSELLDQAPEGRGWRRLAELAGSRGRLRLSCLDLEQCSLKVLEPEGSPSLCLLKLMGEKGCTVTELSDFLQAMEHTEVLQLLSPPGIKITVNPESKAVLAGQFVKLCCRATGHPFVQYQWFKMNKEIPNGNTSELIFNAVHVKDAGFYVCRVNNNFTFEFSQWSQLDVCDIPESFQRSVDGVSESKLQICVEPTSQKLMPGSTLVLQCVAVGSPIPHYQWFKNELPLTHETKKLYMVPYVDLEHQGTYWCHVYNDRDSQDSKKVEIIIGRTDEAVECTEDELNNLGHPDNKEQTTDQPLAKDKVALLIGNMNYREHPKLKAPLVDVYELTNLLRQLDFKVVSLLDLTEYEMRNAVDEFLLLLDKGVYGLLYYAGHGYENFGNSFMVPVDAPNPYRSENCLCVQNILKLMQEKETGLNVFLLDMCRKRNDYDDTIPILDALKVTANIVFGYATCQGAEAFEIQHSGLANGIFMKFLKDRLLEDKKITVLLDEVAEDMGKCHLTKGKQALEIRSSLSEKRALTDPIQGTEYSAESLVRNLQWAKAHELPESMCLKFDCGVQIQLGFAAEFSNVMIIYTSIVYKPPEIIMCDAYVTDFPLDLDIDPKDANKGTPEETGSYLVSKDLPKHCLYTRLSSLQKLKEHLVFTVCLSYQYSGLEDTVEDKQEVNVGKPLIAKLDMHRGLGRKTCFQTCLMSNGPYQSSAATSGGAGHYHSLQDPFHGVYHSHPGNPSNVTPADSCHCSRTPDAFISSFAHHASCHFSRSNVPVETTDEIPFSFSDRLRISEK
UniProt Q9Y4K3: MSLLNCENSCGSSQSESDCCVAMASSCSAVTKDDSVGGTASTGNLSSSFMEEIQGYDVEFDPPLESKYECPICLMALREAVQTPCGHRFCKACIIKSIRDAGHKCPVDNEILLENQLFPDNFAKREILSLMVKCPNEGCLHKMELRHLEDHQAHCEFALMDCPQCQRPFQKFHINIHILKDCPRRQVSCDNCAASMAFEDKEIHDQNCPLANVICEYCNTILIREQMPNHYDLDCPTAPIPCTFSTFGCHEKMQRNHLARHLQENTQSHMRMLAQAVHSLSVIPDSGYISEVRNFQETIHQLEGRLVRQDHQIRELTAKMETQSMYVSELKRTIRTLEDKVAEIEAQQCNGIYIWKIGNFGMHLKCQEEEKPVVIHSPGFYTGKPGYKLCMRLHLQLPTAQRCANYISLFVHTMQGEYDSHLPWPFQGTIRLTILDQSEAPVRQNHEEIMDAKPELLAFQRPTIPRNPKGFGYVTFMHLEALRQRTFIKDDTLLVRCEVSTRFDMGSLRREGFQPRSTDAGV
UniProt Q13489: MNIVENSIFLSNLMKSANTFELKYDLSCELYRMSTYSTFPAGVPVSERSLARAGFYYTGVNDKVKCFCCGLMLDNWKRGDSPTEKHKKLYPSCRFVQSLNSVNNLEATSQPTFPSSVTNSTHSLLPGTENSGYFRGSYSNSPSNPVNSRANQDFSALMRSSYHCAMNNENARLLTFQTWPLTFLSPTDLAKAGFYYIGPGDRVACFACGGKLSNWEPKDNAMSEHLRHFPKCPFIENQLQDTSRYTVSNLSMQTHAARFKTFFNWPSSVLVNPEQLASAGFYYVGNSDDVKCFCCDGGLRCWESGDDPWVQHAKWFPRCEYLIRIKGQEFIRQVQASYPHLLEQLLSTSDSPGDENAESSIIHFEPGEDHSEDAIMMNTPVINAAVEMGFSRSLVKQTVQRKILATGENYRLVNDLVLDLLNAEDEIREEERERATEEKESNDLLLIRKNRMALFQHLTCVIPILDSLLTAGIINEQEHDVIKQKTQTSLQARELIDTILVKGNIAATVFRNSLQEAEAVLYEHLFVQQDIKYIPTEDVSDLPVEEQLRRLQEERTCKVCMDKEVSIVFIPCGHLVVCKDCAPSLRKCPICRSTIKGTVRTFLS

Target: CARD14^E138A-3xFLAG (human) (UniProt Q9BXL6)
Assay: affinity purification with mass spectrometry; anti-FLAG immunoprecipitates from SILAC-labelled CARD14^E138A-3xFLAG HaCaT-TR cells (3 h tetracycline) against parental HaCaT-TR control cells, forward and reverse labelling

Molecule	binding
B1	binds

Target: CARD14^E138A-3xFLAG (human) (UniProt Q9BXL6)
Assay: as above
Remark: another data set of the same source

Molecule	binding
EpsinR (CLINT1) (from UniProt Q14677 1-625)	binds
HOIP (RNF31) (from UniProt Q96EP0 1-1072)	binds
MALT1 (Mucosa-associated lymphoid tissue lymphoma translocation protein 1) (from UniProt Q9UDY8 1-824)	binds
TRAF6 (from UniProt Q9Y4K3 1-522)	binds
cIAP2 (BIRC3) (from UniProt Q13489 1-604)	binds
